Reference: PMC8274477
Results are given in words; binding and its absence hold for the method and conditions named. Some results given as binding are weak or reduced against the parent protein; the word gives no strength.

By UniProt entry, the sequences of proteins in these tests, tags left out.
UniProt Q92623: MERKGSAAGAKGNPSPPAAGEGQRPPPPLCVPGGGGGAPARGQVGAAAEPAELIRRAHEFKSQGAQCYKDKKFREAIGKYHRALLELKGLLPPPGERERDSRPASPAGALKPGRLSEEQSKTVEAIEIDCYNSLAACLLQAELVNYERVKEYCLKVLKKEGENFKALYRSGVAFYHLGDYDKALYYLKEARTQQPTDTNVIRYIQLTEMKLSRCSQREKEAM

Assays:
Assay in all cases: peptide or protein array; HuProt human proteome microarray; 5 ug/5 ml biotin-labelled LUBAC or OTULIN in solution, 1 h at room temperature; Cy5-streptavidin, scanned at 635 nm; BSA as negative control; hits: Z-score >= 3 and I_(Mean_Ratio) >= 1.4; both purified
[1] = molecular target: T1, AKR1C3 (human) (UniProt P42330)
T1 sequence: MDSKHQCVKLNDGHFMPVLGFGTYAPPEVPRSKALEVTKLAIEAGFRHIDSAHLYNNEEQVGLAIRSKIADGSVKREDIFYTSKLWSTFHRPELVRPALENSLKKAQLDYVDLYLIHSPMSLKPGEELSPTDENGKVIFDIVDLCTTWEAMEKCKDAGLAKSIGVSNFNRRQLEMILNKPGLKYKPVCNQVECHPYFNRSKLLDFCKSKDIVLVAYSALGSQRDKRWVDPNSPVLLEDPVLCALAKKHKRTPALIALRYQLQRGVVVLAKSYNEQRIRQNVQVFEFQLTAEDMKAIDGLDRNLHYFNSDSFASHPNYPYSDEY

[2] = molecular target: ARPC1B (human) (UniProt O15143)
[3] = molecular target: T2, KIF23 (human) (UniProt Q02241)
T2 sequence: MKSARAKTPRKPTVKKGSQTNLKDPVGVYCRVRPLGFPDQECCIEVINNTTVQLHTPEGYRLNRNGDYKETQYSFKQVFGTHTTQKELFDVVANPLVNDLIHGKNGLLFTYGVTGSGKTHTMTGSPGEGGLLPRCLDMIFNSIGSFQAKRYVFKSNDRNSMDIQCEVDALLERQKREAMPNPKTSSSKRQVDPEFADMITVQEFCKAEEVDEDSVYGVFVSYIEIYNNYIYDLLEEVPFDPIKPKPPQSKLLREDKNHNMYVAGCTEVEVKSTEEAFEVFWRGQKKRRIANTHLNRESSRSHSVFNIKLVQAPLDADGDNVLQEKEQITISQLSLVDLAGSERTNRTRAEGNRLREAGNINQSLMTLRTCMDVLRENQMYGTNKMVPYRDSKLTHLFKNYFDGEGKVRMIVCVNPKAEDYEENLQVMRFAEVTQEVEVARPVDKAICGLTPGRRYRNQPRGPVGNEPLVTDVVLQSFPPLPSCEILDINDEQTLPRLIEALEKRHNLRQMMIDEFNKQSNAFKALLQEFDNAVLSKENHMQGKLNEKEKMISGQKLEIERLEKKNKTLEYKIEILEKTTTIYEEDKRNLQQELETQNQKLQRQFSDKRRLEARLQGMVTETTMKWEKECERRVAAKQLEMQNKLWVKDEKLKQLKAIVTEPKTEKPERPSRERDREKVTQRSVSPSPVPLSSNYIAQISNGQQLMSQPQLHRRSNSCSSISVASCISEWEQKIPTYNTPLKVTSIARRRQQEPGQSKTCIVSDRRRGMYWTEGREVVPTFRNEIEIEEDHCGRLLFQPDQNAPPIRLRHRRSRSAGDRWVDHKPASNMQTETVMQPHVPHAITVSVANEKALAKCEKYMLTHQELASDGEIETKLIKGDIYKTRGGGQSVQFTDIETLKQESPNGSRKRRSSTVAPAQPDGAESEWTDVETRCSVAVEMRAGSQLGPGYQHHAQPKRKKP

[4] = molecular target: T3, SLFN5 (human) (UniProt Q08AF3)
T3 sequence: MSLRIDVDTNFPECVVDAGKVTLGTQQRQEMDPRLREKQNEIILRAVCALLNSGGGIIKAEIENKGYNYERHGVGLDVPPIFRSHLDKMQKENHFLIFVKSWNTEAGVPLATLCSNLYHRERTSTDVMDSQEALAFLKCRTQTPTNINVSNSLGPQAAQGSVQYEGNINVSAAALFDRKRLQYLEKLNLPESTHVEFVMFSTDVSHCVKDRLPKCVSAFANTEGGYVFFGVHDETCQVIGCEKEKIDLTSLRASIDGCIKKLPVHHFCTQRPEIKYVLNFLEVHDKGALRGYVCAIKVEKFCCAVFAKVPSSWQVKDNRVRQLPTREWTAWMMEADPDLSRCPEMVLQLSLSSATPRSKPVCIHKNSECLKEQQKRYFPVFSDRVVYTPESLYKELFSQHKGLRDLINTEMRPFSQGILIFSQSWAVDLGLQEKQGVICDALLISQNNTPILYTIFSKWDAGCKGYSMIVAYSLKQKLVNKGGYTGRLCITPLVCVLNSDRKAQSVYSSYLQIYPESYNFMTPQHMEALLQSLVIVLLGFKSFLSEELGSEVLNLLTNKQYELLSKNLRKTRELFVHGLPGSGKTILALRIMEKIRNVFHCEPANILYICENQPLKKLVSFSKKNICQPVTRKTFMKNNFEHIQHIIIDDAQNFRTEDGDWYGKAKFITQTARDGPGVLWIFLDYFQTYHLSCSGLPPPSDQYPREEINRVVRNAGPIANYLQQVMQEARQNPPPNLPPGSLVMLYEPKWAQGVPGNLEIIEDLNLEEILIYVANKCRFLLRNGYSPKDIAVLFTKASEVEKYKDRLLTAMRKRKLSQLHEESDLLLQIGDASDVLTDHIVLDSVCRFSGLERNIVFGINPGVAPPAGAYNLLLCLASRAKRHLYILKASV

[5] = molecular target: TTC9 (human) (UniProt Q92623)

Measured: binding

linear ubiquitin chain assembly complex (LUBAC), purified as HIS-tagged HOIP with the subunit HOIL-1, biotin-labelled (from UniProt Q96EP0 1-1072; Q9BYM8 1-510)
binds: all assays above
